Results on 5 sequences are retold here after PMC3404119.

Construct, isoform or probe ends are uncertain for at least one entry. For part of these data: Tags and fusion partners may be left off the protein sequences shown.

Data set [1] deals with Her7 (coupled to chip, Fig 2D) + Hes6-mCherry. As to the kind of experiment: MITOMI. The following applies: Her7:Hes6 heterodimer, Her7 coupled to chip and Hes6-mCherry in solution; TnT SP6 wheat germ expression extract on MITOMI chip, 3 h at room temperature; salt and pH not stated; PBS used for washing; high values mean tight binding; protein translated in vitro; label: Cy5; only the motif is given; counted as no binding.

Data set [2] concerns the target T1, Her1-GFP homodimer (zebrafish (Danio rerio)) (UniProt Q90463).
T1 sequence (looked up, limits assumed): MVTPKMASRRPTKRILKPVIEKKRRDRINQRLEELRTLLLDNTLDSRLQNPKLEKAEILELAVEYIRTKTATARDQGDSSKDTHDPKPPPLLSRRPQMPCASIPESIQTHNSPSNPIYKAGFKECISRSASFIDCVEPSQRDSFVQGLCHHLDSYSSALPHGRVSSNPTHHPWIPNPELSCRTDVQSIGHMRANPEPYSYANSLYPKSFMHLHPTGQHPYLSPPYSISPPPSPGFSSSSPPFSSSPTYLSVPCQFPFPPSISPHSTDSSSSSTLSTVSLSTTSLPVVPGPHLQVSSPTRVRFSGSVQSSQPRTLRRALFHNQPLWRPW
As to the kind of experiment: MITOMI. To be noted: PPARgamma-mCherry co-present (non-interacting control); TnT SP6 wheat germ expression extract on MITOMI chip, 3 h at room temperature; salt and pH not stated; PBS used for washing; high values mean tight binding; protein translated in vitro; protein details: C-terminal GFP; label: Cy5; only the motif is given; counted as no binding.

As to CTCAAAAAACCC (double strand) [47], the binding signal (relative affinity (strongest site = 1)) came to 0.0137 in data set [1] and 0.0105 in data set [2].
Take CTCCACAAACCC (double strand) [46]: the binding signal (relative affinity (strongest site = 1)) amounted to 0.0131 in data set [1] and 0.0105 in data set [2].
Regarding GCTCAGGTGCGT (double strand) [45], the binding signal (relative affinity (strongest site = 1)) came to 0.0134 in data set [1] and 0.00829 in data set [2].
On to TCACACCTGTGCAG (double strand) [44], for which, in data set [2], the binding signal (relative affinity (strongest site = 1)) is 0.00943.
As for TCCCACGGGAAT (double strand) [34], the binding signal (relative affinity (strongest site = 1)) in data set [1] and in data set [2] was 0.0103 in each case.
